Data taken from PubChem BioAssay AID624297 (National Center for Advancing Translational Sciences (NCATS), 2012).
Several values for one entry are separate records, joined by “and”; a condition that tells them apart may be missing. Equal values may be shown once. Hit rate of the full screen: of about 340,000 compounds, about 6,200 (1.8%) were called active. This list was built around the results that the source calls inconclusive (neither active nor inactive); the mix of calls is not that of the screen. The call rests on the fitted dose curve; in most records, active means well fitted activation curve with a large enough effect; inconclusive means small, poorly fitted or top-dose-only effect; inactive means no such curve, though single readings can be large or run the other way. Potencies beside an inconclusive call are fits to weak or partial responses and may not hold up.

assay: A quantitative high throughput screen for small molecules that induce DNA re-replication in SW480 colon adenocarcinoma cells.; further: nearly all actives have a fitted effect of over 55% in size; on re-replication activation: % of control where 0% means no effect; settings: Hoechst DNA content imaging, 48 h; re-replication activation: at 46.1 µM (top of the series)
How it was run: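 DNA re-replication was detected as more nuclei of elevated Hoechst intensity after 48 hr exposure to compound (23 nL pinned per well of 250 cells).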
Potency means the concentration at half of the fitted maximal effect.

Row | SMILES | Potency | re-replication activation
1 | Cn1c(=O)c2c(nc(-c3ccc(N(CCCl)CCCl)cc3)n2C)n(C)c1=O | inconclusive: 29.1 µM [activator, single point] | 
2 | O=C(COc1ccc(Br)cc1)N1CCN(Cc2c[nH]c3ccccc23)CC1 | inconclusive: 0.517 µM [activator, full curve, poor fit] | 
3 | CN1CSC(=S)N(C)C1 | inconclusive: 16.4 µM [activator, partial curve, poor fit] | 
4 | c1ccc(C(c2ccccc2)c2cccnc2)cc1 |  | inactive: 4.76%
5 | CC(C)c1ccc(OCC(=O)N2CCCN(C)CC2)cc1 | inconclusive: 18.4 µM [activator, single point] | 
6 | CC(=O)O[C@H]1C(=O)[C@@]2(C)C([C@H](OC(=O)c3ccccc3)[C@]3(O)C[C@H](O)C(C)=C1C3(C)C)[C@]1(OC(C)=O)CO[C@@H]1C[C@H]2O (some centres undefined) | inconclusive: 16.4 µM [activator, single point] | 
7 | CCC(=NCc1ccco1)c1c(O)n(C)c(=O)n(C)c1=O | inconclusive: 2.31 µM [activator, partial curve, poor fit] | 
8 | N#CC1=C(N)Oc2c(c(=O)oc3ccccc23)C1c1ccccc1OC(=O)c1cccs1 (centres undefined) | inconclusive: 20.6 µM [activator, single point] | 
9 | CN1[C@@H](CC(=O)c2ccccc2)CCC[C@H]1C[C@H](O)c1ccccc1 | inactive | 
10 | C=CCn1c(=O)c(C=Nc2cccc([N+](=O)[O-])c2)c(O)n(CCCC)c1=O |  | inactive: -7.59%
11 | CN(CCS(=O)(=O)c1ccc(Cl)cc1)Cc1cccnc1 | inconclusive: 29.1 µM [activator, single point] | 
12 | CC(=O)OC1N=C(c2ccccc2Cl)c2cc(Br)ccc2N(C)C1=O (centres undefined) |  | inactive: 4.81%
13 | CCOc1ccc(N2C(=O)NC(=O)/C(=C\c3cc(OC)c(OC)cc3[N+](=O)[O-])C2=O)cc1 | inconclusive: 29.1 µM [activator, single point] | 
14 | CC(C)c1oc(=O)cc2c1[C@@H](O)[C@H]1OC(=O)[C@@]3(C)CC[C@@H](O)[C@@]2(C)C13 (some centres undefined) | inconclusive: 4.11 µM [activator, full curve] | 
15 | COC(=O)NC(=S)Nc1ccccc1NC(=S)NC(=O)OC | inconclusive: 25.9 µM [activator, single point] | 
16 | CN=C(SCC(=O)c1cccc(Cl)c1)c1c(O)n(C)c(=O)n(C)c1=O | inconclusive: 8.2 µM [activator, partial curve, poor fit] | 
17 | CC(=O)c1ccc2c(c1)C1C(Cl)C(Sc3ccccc3[N+](=O)[O-])CC1C(c1ccccc1[N+](=O)[O-])N2 (centres undefined) |  | inactive: 0.864%
18 | Cc1ccnc2c1NC(=O)c1cccnc1N2C1CC1 | inconclusive: 29.1 µM [activator, single point] | 
19 | CC12CC(=O)C3C(CCC4CC(=O)C=CC43C)C1CCC2=O (centres undefined) |  | inactive: -0.976%
20 | CN(C)CCC=C1c2ccccc2CCc2ccccc21 | inconclusive: 18.4 µM [activator, partial curve, poor fit] | 
21 | CCNc1cc(N2CCN(C)CC2)ccc1[N+](=O)[O-] |  | inactive: -45.3% [at 1.84 µM]
22 | COc1ccc(CCn2c(O)c(/C=N/NC(=O)c3ccncc3)c(=O)[nH]c2=O)cc1OC | inconclusive: 29.1 µM [activator, single point] | 
23 | CC(=O)OC(C)(C)/C=C/C(=O)C(C)(O)C1[C@H](O)C[C@@]2(C)C3CC=C4C(CC[C@@H](O)C4(C)C)[C@]3(CO)C(=O)C[C@]12C (some centres undefined) | inconclusive: 0.0052 µM [activator, full curve, poor fit] | 

Row | SMILES | Potency | re-replication activation
24 | Cc1ccc2c(c1)C(c1ccccc1)=NCC(=O)N2 |  | inactive: 6.6%
25 | COc1ccccc1N1C(=O)NC(=O)/C(=C\c2cnn(-c3ccccc3)c2)C1=O | inconclusive: 16.4 µM [activator, single point] | 
26 | CN(C)CCNC(=O)c1cccn(Cc2cccc(C(F)(F)F)c2)c1=O |  | inactive: 15.5%
27 | CC(C)OCCCNC(=O)c1c(N)n(Cc2cccs2)c2nc3ccccc3nc12 | active: 3.66 µM | 
28 | Cc1ccc(Cn2nc(C)c(C=O)c2Cl)cc1 |  | inactive: 0.64%
29 | C=CC1CN2CCC1CC2c1[nH]c2ccccc2c1CCO (centres undefined) | inconclusive: 1.64 µM [activator, partial curve, poor fit] | 
30 | O=C1NC(=O)N(CCC2=CCCCC2)C(=O)/C1=C\c1cccs1 | inconclusive: 29.1 µM [activator, single point] | 
31 | CCCCCn1c(=O)c(C(=O)Nc2ccccc2C)c(O)c2ccccc21 |  | inactive: -7.45%
32 | COC(=O)C1=C(c2cc3ccccc3o2)C[C@@H]2CC[C@H]1N2C(=O)N1CCOCC1 | inconclusive: 29.1 µM [activator, single point] | 
33 | COc1ccc(-n2nc(C(=O)NCC(=O)N3CCC4(CC3)OCCO4)c3ccccc3c2=O)c(OC)c1 |  | inactive: -79.8%
34 | COc1ccc(CCNCc2ccc(F)cc2)cc1OC |  | inactive: -1.15%
35 | COc1cc(N2C(=O)CC(=O)NC2=O)cc(OC)c1OC | inconclusive: 16.4 µM [activator, partial curve, poor fit] | 
36 | CNCC[C@H](Oc1cccc2ccccc12)c1cccs1 | active: 13.3 µM | 
37 | Cc1cc(Cl)ccc1C(=O)C1CCCN(C2CCSCC2)C1 (centres undefined) |  | inactive: 19.7%
38 | COC(=O)C1=C(c2ccc(-c3ccccc3)c(F)c2)C[C@@H]2CC[C@H]1N2C(=O)N1CCC(O)CC1 |  | inactive: -6.77%
39 | COCCNCCOc1ccc(C(C)(C)c2ccccc2)cc1 |  | inactive: 5.6%
40 | COC1CC(C)C(OC)c2cc(O)cc(c2O)NC(=O)C(C)=CC=CC(C)C(OC(N)=O)C(C)=CC(C)C1OC (centres undefined) | active: 2.59 µM | 
41 | O=C(c1ccccc1F)c1cn(Cc2ccc(F)cc2)c2ccccc12 | inconclusive: 11.2 µM [activator, partial curve, poor fit] | 
42 | S=P(N1CCCCCC1)(N1CC1)N1CC1 | inconclusive: 16.4 µM [activator, partial curve, poor fit] | 
43 | COc1ccc(N2C(=O)NC(=O)/C(=C\c3ccc([N+](=O)[O-])s3)C2=O)cc1 | inconclusive: 25.9 µM [activator, single point] | 
44 | Clc1ccc(C(c2ccc(Cl)cc2)C(Cl)(Cl)Cl)cc1 |  | inactive: -0.378%
45 | COc1ccc(CCNC(C)CCc2ccc(OC)cc2)cc1 (centres undefined) | inconclusive: 29.1 µM [activator, single point] | 
46 | COc1ccc(CN2Cc3cnnn3-c3ccccc3C2C#N)cc1 (centres undefined) | inconclusive: 6.51 µM [activator, single point] | 

Another view of 2 compounds above:
Cc1ccc(Cn2nc(C)c(C=O)c2Cl)cc1
  re-replication activation: inactive: 0.64%
C=CC1CN2CCC1CC2c1[nH]c2ccccc2c1CCO (centres undefined)
  Potency: inconclusive: 1.64 µM [activator, partial curve, poor fit]

The list goes on.

Row | SMILES | Potency | re-replication activation
47 | COC(=O)C(C)Oc1cc(C)cc2oc(=O)c3c(c12)CCCC3 (centres undefined) |  | inactive: -1.18%
48 | COc1ccc(CCNC(=O)c2c(N)n(CCN3CCOCC3)c3nc4ccccc4nc23)cc1 | active: 16.4 µM | 
49 | O=C1NC(=O)C(Cc2ccccc2)(Cc2ccccc2)C(=O)N1Cc1ccccc1 | inconclusive: 20.6 µM [activator, single point] | 
50 | COc1ccc(-c2nc3ccccc3c(=O)o2)cc1 |  | inactive: -6.11%
51 | CC1(C)N=C(c2ccccc2)[C@@H]2C(c3ccc([N+](=O)[O-])cc3)N21 (some centres undefined) | inconclusive: 0.103 µM [activator, full curve, poor fit] | 
52 | Cn1cc(C(=O)OCC(=O)N2CCCCC2)c2ccccc21 | inconclusive: 18.4 µM [activator, single point] | 
53 | Cc1cccc(OP(=O)(NCc2ccccc2)Oc2cccc(C)c2)c1 | inconclusive: 13 µM [activator, partial curve] | 
54 | COc1ccc(-c2nc3ccccc3c(=O)n2-c2nccs2)cc1 |  | inactive: -17.8%
55 | Cc1cccc(C(=O)NC2CC3CCCC(C2)N3Cc2ccccc2)c1 (centres undefined) | inconclusive: 29.1 µM [activator, single point] | 
56 | CC(C)COC(=O)OCN1C(=O)CN(CCN2CC(=O)N(COC(=O)OCC(C)C)C(=O)C2)CC1=O | inconclusive: 13.3 µM [activator, partial curve] | 
57 | C[N+](C)(C)CC1CCCc2ccccc2C1=O (centres undefined) |  | inactive: 15.6%
58 | O=C(NN=Cc1ccc(N(CCCl)CCCl)cc1Cl)c1cccnc1 | inconclusive: 16.4 µM [activator, partial curve] | 
59 | C=Cn1ccnc1P(=S)(c1cc(N(CC)CC)ns1)c1nccn1C=C | inconclusive: 2.59 µM [activator, full curve, poor fit] | 
60 | C=C1C(=O)OC2C1CCC(C)C1(O)C=CC(=O)C21C (centres undefined) | inconclusive: 4.11 µM [activator, full curve] | 
61 | C[C@H]1COC2=C1C(=O)C(=O)c1c2ccc2c1CCCC2(C)C | inconclusive: 4.11 µM [activator, full curve, poor fit] | 
62 | COC1=CC(=O)OC(CCc2ccc3c(c2)OCO3)C1 (centres undefined) | inconclusive: 0.82 µM [activator, full curve, poor fit] | 
63 | O=C(Cn1c(=O)n(CC2CS2)c2ccccc21)N1CCCCC1 (centres undefined) | inconclusive: 16.4 µM [activator, partial curve, poor fit] | 
64 | CCN(CC)C(=O)c1c(C)[nH]c(=S)c(C#N)c1-c1ccco1 | inconclusive: 25.9 µM [activator, single point] | 
65 | NNc1n[nH]c(=S)n1N |  | inactive: -0.354%
66 | CCOC(=O)C(NC(=O)CCl)(Nc1ccc(C(O)(C(=O)OCC)C(F)(F)F)cc1)C(F)(F)F (centres undefined) | inconclusive: 29.1 µM [activator, single point] | 
67 | CN1C(=O)N(C)C(=O)C2(Cc3cc([N+](=O)[O-])ccc3N(C)C2)C1=O |  | inactive: 20.9%
68 | Oc1ccc(Cl)cc1Cc1cc(Cl)ccc1O | inconclusive: 33.5 µM [activator, partial curve, poor fit] and inconclusive: 18.4 µM [activator, single point] | 
69 | O=C(c1ccccc1[N+](=O)[O-])N1CCC2(CC1)OCCO2 | inconclusive: 6.51 µM [activator, partial curve, poor fit] | 

Arranged by count of non-hydrogen atoms (descending): part of the list above.
Row | SMILES | Potency | re-replication activation
56 | CC(C)COC(=O)OCN1C(=O)CN(CCN2CC(=O)N(COC(=O)OCC(C)C)C(=O)C2)CC1=O | inconclusive: 13.3 µM [activator, partial curve] | 
48 | COc1ccc(CCNC(=O)c2c(N)n(CCN3CCOCC3)c3nc4ccccc4nc23)cc1 | active: 16.4 µM | 
66 | CCOC(=O)C(NC(=O)CCl)(Nc1ccc(C(O)(C(=O)OCC)C(F)(F)F)cc1)C(F)(F)F (centres undefined) | inconclusive: 29.1 µM [activator, single point] | 
49 | O=C1NC(=O)C(Cc2ccccc2)(Cc2ccccc2)C(=O)N1Cc1ccccc1 | inconclusive: 20.6 µM [activator, single point] | 
55 | Cc1cccc(C(=O)NC2CC3CCCC(C2)N3Cc2ccccc2)c1 (centres undefined) | inconclusive: 29.1 µM [activator, single point] | 
58 | O=C(NN=Cc1ccc(N(CCCl)CCCl)cc1Cl)c1cccnc1 | inconclusive: 16.4 µM [activator, partial curve] | 
54 | COc1ccc(-c2nc3ccccc3c(=O)n2-c2nccs2)cc1 |  | inactive: -17.8%
47 | COC(=O)C(C)Oc1cc(C)cc2oc(=O)c3c(c12)CCCC3 (centres undefined) |  | inactive: -1.18%
61 | C[C@H]1COC2=C1C(=O)C(=O)c1c2ccc2c1CCCC2(C)C | inconclusive: 4.11 µM [activator, full curve, poor fit] | 
69 | O=C(c1ccccc1[N+](=O)[O-])N1CCC2(CC1)OCCO2 | inconclusive: 6.51 µM [activator, partial curve, poor fit] | 
62 | COC1=CC(=O)OC(CCc2ccc3c(c2)OCO3)C1 (centres undefined) | inconclusive: 0.82 µM [activator, full curve, poor fit] | 
60 | C=C1C(=O)OC2C1CCC(C)C1(O)C=CC(=O)C21C (centres undefined) | inconclusive: 4.11 µM [activator, full curve] | 
57 | C[N+](C)(C)CC1CCCc2ccccc2C1=O (centres undefined) |  | inactive: 15.6%
65 | NNc1n[nH]c(=S)n1N |  | inactive: -0.354%
